Results: patent US20030119903A1, “Use of trimebutine for treating pain” (priority 1999, published 2003)
Some of these results come from one statement about several compounds together. At least one compound was matched to its structure with a doubt left.

Tested on: veratridine-induced glutamate release
Assay: veratridine-induced [3H]-glutamate release from rat spinal cord slices

Q: Which “concentration at which inhibition of glutamate release is seen / significant” value does the source give for `CC[C@@](COC(=O)c1cc(OC)c(OC)c(OC)c1)(c1ccccc1)N(C)C` [(S)-Trimebutine] here?
A: ≥ 3 µM

Q: For `CCC(COC(=O)c1cc(OC)c(OC)c(OC)c1)(NC)c1ccccc1` (centres unmarked) [Nor-TMB, N-desmethyl trimebutine], which “concentration at which inhibition of glutamate release is seen / significant” value is on record?
A: ≥ 3 µM
